{"source": "patent US20110166194A1", "about": "“Asenapine Prodrugs” (Alkermes, Inc., priority 2010, published 2011)", "experiment": "Pharmacokinetic evaluation of asenapine and asenapine prodrugs in rats", "assay_type": "in vivo, Sprague-Dawley rats", "conditions": "rat plasma, 10 mg/rat IM; first sampled time point 6 hours; stated as likely", "procedure": "Animals: 18 Male Sprague-Dawley rats (Charles River Laboratories, Wilmington, Mass.) were used in the study. Three groups of 6 rats were used and are referred to in this study as Groups A, B and C. Rats were approximately 350-375 g at time of arrival. Rats are housed 2 per cage with ad libitum chow and water. Environmental conditions in the housing room: 64-67° F., 30% to 70% relative humidity, and 12:12-h light:dark cycle. All experiments were approved by the institutional animal care and use committee.\nTest Compounds: The following formulations of Asenapine parent drug and prodrug compounds of the invention were used in the study.\nPharmacokinetics study: Rats were dosed IM by means of a 23 gauge, 1 in. needle with 1 cc syringe 0.3 mL suspension was withdrawn from the vial containing the test compound. The rat was injected in the muscles of the hind limb after anesthesia with isoflourane. Blood samples were collected via a lateral tail vein after brief anesthesia with Isoflurane. A 27½G needle and 1 cc syringe without an anticoagulant was used for the blood collection. […]\nData Analysis: Drug concentrations in plasma samples were analyzed by liquid chromatography—mass spectroscopy using appropriate parameters for each compound. Half-life, volume of distribution, clearance, maximal concentration, and AUC were calculated by using WinNonlin version 5.2 software (Pharsight, St. Louis, Mo.).", "note": "Some results were stated once for a whole list of compounds, not compound by compound. The name of at least one read-out is uncertain.", "data": [{"smiles": "CN1CC2c3ccccc3Oc3ccc(Cl)cc3C2C1", "note": "(stereo not shown) [Asenapine]", "values": [{"measurement": "Time of Cmax", "result": "< 6", "unit": "h"}]}]}
